Article PMC8497546

Chains of the proteins cited; added tags and fusions are not shown. Lines headed by an entry give the natural chain unless they say otherwise; changes in a name come on top.
UniProt Q9Y397: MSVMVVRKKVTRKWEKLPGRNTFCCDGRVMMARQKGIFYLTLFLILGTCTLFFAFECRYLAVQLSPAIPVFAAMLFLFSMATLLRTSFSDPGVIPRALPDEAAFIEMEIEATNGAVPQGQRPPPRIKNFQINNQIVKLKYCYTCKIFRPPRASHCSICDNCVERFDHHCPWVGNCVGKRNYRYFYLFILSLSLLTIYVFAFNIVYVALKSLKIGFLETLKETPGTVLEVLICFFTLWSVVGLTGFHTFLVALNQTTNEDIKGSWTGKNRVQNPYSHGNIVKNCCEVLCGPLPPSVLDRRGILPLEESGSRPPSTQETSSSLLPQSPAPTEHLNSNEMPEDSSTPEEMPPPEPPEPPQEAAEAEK
UniProt P11166: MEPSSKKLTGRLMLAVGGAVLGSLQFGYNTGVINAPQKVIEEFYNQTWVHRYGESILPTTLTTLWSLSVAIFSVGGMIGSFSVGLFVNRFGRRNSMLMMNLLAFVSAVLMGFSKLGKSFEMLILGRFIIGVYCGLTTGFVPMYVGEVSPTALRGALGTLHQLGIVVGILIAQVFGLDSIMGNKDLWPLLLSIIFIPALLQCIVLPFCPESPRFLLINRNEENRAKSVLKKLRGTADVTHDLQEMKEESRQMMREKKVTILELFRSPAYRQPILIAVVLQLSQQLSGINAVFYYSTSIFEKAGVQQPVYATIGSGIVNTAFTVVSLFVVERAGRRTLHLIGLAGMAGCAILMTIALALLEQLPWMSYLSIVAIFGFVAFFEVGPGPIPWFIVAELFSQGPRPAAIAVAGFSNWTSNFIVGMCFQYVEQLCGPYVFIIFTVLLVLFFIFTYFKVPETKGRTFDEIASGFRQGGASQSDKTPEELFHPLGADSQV

Molecular target: GST-tagged DHHC9 (human) (UniProt Q9Y397)
Assay: pull-down; GST pull-down: 200 ng His-tagged purified protein mixed with 100 ng GST fusion protein (or GST as control) in 50 mM Tris-HCl pH 7.5, 1% Triton X-100, 150 mM NaCl, 1 mM DTT, 0.5 mM EDTA for 1 h; glutathione agarose beads 30 min at 4 °C; immunoblot; both purified

6×His-tagged GLUT1 (from UniProt P11166 1-492)
binding: binds

These are yes or no findings as the source states them, for the method shown. Binding calls can cover weak binding; strength is not graded here.
